PubChem BioAssay AID504804 | Drosophila RNAi Screening Center | 2011

Assay: 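Knock-downs shielding fly cells from apoptosis caused by DNA damage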 (primary screen)
Cells: Drosophila Kc cells
Reagent: long dsRNA against Drosophila genes, 0.5 µg dsRNA per well
Timing: 96 h (48 h knock-down, then 48 h drug)
Treatment: doxorubicin 5 µg/ml for 48 h, added 48 h after dsRNA
Measurement: 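Luminescent ATP counts per replicate, not normalised, reflecting viable cells after 48 h dsRNA knock-down followed by 48 h of 5 µg/ml doxorubicin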
Reading the numbers: raw ATP luminescence: higher = more viable cells, protection from doxorubicin
Hit rule: 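Active when both duplicate wells lie at least 2 SD above the plate mean and protection is confirmed by rescreening and independent dsRNAs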
In all, the deposit lists about 19,000 reagents; this is an unselected part of those that have a named target and a result. In the full data, 47 (0.25%) were called active. 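Signals are raw, not normalised; exact z-scores behind calls not deposited; actives needed confirmation, so some wells reaching 2 SD are inactive.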 Names joined by + are all predicted targets of the reagent.

gene	PubChem SID	raw ATP luminescence, replicate 1	raw ATP luminescence, replicate 2	Call
Ice1 (Interacts with the C terminus of ELL 1)	SID104183983	30870	41903	inactive
hpo (hippo)	SID104185857	47633	54273	inactive
hubl (hug-bell)	SID104186617	53903	71693	inactive
Pfdn5 (Prefoldin 5)	SID104195975	42517	53030	inactive
CG34217	SID104184875	64317	65687	inactive
CG5167	SID104195520	55463	60163	inactive
pum (pumilio)	SID104192514	74273	54850	inactive
pum (pumilio)	SID104192518	46427	88413	inactive
pum (pumilio)	SID104196829	61820	59673	inactive
pum (pumilio)	SID104196830	67120	53317	inactive
ea (easter)	SID104196731	89850	94880	inactive
Mpv17 (Mitochondrial inner membrane protein MPV17)	SID104196990	50110	67080	inactive
CG16952	SID104199551	3.54e5	3.07e5	inactive
CG8765	SID104190833	34177	38867	inactive
CG12253	SID104181945	81013	56397	inactive
CG6230	SID104181781	1.14e5	72297	inactive
grp + CG31782 (retired record)	SID104183333	91457	58200	inactive
MrgBP (MRG/MORF4L binding protein)	SID104186209	48550	90940	inactive
cpo (couch potato)	SID104193057	2.40e5	2.28e5	inactive
Vps11 (Vacuolar protein sorting 11)	SID104191701	62107	51223	inactive
CG14000	SID104182124	29197	30287	inactive
Mal-A4 (Maltase A4)	SID104187028	40250	78600	inactive
CG33095	SID104194233	61030	62550	inactive
Nprl3 (Nitrogen permease regulator-like 3)	SID104190836	22960	21243	inactive
Tig (Tiggrin)	SID104183248	30970	25283	inactive
CG30373	SID104184873	77157	86063	inactive
HUWE1	SID104199881	3.18e5	3.19e5	inactive
CG11262	SID104189623	91650	87860	inactive
CR34254 (pseudo)	SID104189354	48380	76907	inactive
CG32683	SID104197782	3.08e5	2.58e5	inactive
CG32683	SID104198024	2.79e5	2.52e5	inactive
CG32683	SID104198025	3.27e5	2.95e5	inactive
Fpgs2 (Folylpolyglutamate synthase 2)	SID104180392	32950	32663	inactive
CG33061	SID104189730	35837	33797	inactive
CG32750	SID104198640	42010	42930	inactive
CG11322	SID104181934	25707	34587	inactive
UQCR-C2 (Ubiquinol-cytochrome c reductase core protein 2)	SID104190197	66637	58280	inactive
flw (flapwing)	SID104197784	2.89e5	2.59e5	inactive
flw (flapwing)	SID104198566	2.41e5	2.22e5	inactive
l(2)k14505 (lethal (2) k14505)	SID104182898	63747	65953	inactive
cid (centromere identifier)	SID104185221	1.03e5	1.15e5	inactive
CG30222	SID104183917	77937	96637	inactive
CG30222	SID104184054	57237	52623	inactive
CG17272	SID104195003	65750	71520	inactive
Hand	SID104182448	46783	89610	inactive
CG33639	SID104199758	3.98e5	3.47e5	inactive
Hers + amn	SID104200098	3.48e5	3.07e5	inactive
CG9631	SID104193929	62507	24520	inactive
CG4757	SID104193922	37417	46863	inactive
CG12546	SID104191468	59360	48063	inactive
Pkd2 (Polycystic kidney disease 2)	SID104182754	76840	63517	inactive
CG13062	SID104189737	55427	49907	inactive
cn (cinnabar)	SID104187386	41930	61470	inactive
Ziz (Zizimin)	SID104182298	24963	25753	inactive
Ziz (Zizimin)	SID104182768	42803	29627	inactive
BckdhA (Branched chain keto acid dehydrogenase E1 subunit alpha)	SID104196187	65133	49080	inactive
CG5535	SID104190306	24600	23660	inactive
Hsp27 (Heat shock protein 27)	SID104190982	35977	35120	inactive
CG32772	SID104197844	55740	72480	inactive
Vps60 (Vacuolar protein sorting 60)	SID104190402	64037	64403	inactive
CAHbeta (Carbonic anhydrase beta)	SID104194241	45443	23533	inactive
Cul4 (Cullin 4)	SID104187035	60437	50667	inactive
mRpS21 (mitochondrial ribosomal protein S21)	SID104192757	1.79e5	2.18e5	inactive
CG11523	SID104191461	23750	23573	inactive
vig2	SID104194194	30863	42187	inactive
phu (phurba tashi)	SID104196182	62453	55203	inactive
CG7778	SID104182859	94870	68010	inactive
CG5808	SID104193916	38110	32163	inactive
CG11912	SID104180124	1.15e5	72653	inactive
P58IPK	SID104196196	55360	55493	inactive
loh (lonely heart)	SID104180914	2.95e5	2.83e5	inactive
loh (lonely heart)	SID104182735	29840	73297	inactive
drd (drop dead)	SID104199135	3.31e5	3.39e5	inactive
CG6106	SID104199763	3.26e5	3.14e5	inactive
Slik (Sterile20-like kinase)	SID104184263	75270	55550	inactive
CG5828	SID104182692	35847	54647	inactive
Cyp12a5 (Cytochrome P450 12a5)	SID104196413	40290	47400	inactive
NT1 (Neurotrophin 1)	SID104188322	76777	72910	inactive
CG13791 (retired record)	SID104182087	21893	22500	inactive
Cchl (Cytochrome c heme lyase)	SID104195741	49007	52743	inactive
SMSr (Sphingomyelin synthase related)	SID104190790	37370	46283	inactive
SMSr (Sphingomyelin synthase related)	SID104190791	85963	90220	inactive
CG14659	SID104192037	58193	50057	inactive
Drl-2 (Derailed 2)	SID104185185	65090	76053	inactive
